According to the supplement of paper PMC12823440, “Inhibitors supercharge kinase turnover through native proteolytic circuits” (Nature, 2025):
Where a name gives a salt, the structure may show the parent alone. The list shows a part of the results. Hit calls seldom repeat between salt and free forms of one compound.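 Kinases were expressed as nanoluciferase fusions in K562 cells and luminescence was read every 4 h between 2 and 18 h as percent of control, DMSO set to 100% and a positive control to 0%. A time point counts as decreased when the signal drops significantly (2 sigma). The hit call is the authors' own, does not follow from the count of time points alone, and its rule is not shown.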

Protein sequences, listed by entry. Tags and fused reporters are not part of them.
UniProt P28482, whole entry: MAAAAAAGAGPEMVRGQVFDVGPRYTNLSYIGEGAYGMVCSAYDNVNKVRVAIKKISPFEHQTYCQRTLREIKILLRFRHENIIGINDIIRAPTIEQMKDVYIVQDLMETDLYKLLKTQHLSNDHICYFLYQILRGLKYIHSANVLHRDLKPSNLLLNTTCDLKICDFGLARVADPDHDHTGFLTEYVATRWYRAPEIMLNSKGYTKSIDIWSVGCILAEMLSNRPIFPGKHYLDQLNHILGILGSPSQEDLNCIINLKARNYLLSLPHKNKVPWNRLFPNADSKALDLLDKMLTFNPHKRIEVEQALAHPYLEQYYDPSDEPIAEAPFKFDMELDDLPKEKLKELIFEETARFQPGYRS

Biological target: MAPK1 (UniProt P28482)
Test: number of time points (of 5) at which kinase-Nluc abundance scored as decreased, DMSO-normalised (count); higher = more persistent destabilization
Conditions: K562; 2-18 h

SMILES | number of time points
CN1C(=O)[C@@H](NC(=O)c2n[nH]c(Cc3ccccc3)n2)COc2ccccc21 (10 µM) | 0
O=C1NC(=Nc2c(Cl)cccc2Cl)S/C1=C\c1ccc2nccnc2c1 (2.5 µM) | 0
Cc1cccc(-c2[nH]c(C(C)(C)C)nc2-c2ccc3nccnc3c2)n1 (10 µM) | 0
O=C(Nc1cccc(C(F)(F)F)c1)c1cccc2cc(Oc3cc(CO)ncn3)ccc12 (10 µM) | 0
CNc1cc(Nc2cccn(-c3ccccn3)c2=O)nn2c(C(=O)N[C@@H]3C[C@@H]3F)cnc12 (2.5 µM) | 0
Cc1ccn2c(C(=O)C(=O)c3ccccc3)c(-c3ccccc3)nc2c1 (10 µM) | 0
COc1cc(N2CCOCC2)ccc1Nc1ncc(Cl)c(Nc2ccccc2NS(C)(=O)=O)n1 (2.5 µM) | 0
O=C(NC1CCOCC1)c1ccc(-c2cc(-c3c[nH]nc3-c3ccccn3)ccn2)cc1 (10 µM) | 0
O=C1NC(=O)/C(=C/c2ccc3nccc(-c4ccncc4)c3c2)S1 (10 µM) | 0
Cc1ncc(NC(=O)NC2c3ccccc3-c3ccccc32)c(-c2ccccc2)n1 (10 µM) | 0
CC(C)C[C@@H](C(=O)Nc1ccn(C[C@@H](O)CO)n1)N1CC(Oc2ccccc2Cl)=CC1=O [Dorzagliatin] (10 µM) | 0
O=C1O[C@H]([C@@H](O)CO)C(O)=C1OP(=O)(O)O [2-Phospho-L-ascorbic acid (trisodium)] (10 µM) | 0
C[C@@H]1CC(=O)c2c(ccc3c2C(=O)c2cccc(O)c2C3=O)C1 [Ochromycinone] (10 µM) | 0
Cc1c(-c2ccc(C(N)=O)c3[nH]c4cc(C(C)(C)O)ccc4c23)cccc1-n1cnc2ccccc2c1=O (2.5 µM) | 0
CC(C)(C)n1nc(Cc2ccccc2O)c2c(N)ncnc21 (10 µM) | 0
C=CC(=O)N1C(=O)CC(c2ccc(F)cc2)Sc2ccccc21 (stereo not drawn) [GSK-3β inhibitor 3] (10 µM) | 0
CCc1ccc(OCC(=O)Nc2ccc(F)c([N+](=O)[O-])c2)cc1 (10 µM) | 0
CN(C)c1nc2c(Br)c(Br)c(Br)c(Br)c2[nH]1 (10 µM) | 0
Nc1ncnc2c1c(-c1ccc(Oc3ccccc3)cc1)nn2C1CCN(CCOCCOCCOc2ccc3c(c2)CN(C2CCC(=O)NC2=O)C3=O)CC1 (centres undefined) (2.5 µM) | 0
Cc1cnc(NC2CCOCC2)nc1-n1cnc(C(=O)N[C@H](CN)c2cc(F)cc(Cl)c2)c1 (10 µM) | 0

Some of the entries so far, in markdown:

| SMILES | number of time points |
| --- | --- |
| O=C1NC(=O)/C(=C/c2ccc3nccc(-c4ccncc4)c3c2)S1 (10 µM) | 0 |
| Cc1ncc(NC(=O)NC2c3ccccc3-c3ccccc32)c(-c2ccccc2)n1 (10 µM) | 0 |

Next part:

SMILES | number of time points
FC(F)(F)c1ccc(/C=C/c2nc(COc3ccc(CCCCn4ccnn4)cc3)co2)cc1 [Mubritinib] (10 µM) | 0
Cc1cc2sc(NC(=O)Cc3ccccc3)nc2cc1Cl (10 µM) | 0
O=C(CNc1cccc(Cl)c1)NC1CCCN(c2ncnc3[nH]ccc23)C1 (centres undefined) (10 µM) | 0
Oc1ccc(/C=C/c2cc(O)cc(F)c2)cc1 [Resveratrol analog 1] (10 µM) | 0
CC/C(=N\NC(=O)c1ccnc(NCCCN2CCOCC2)c1)c1ccc(Cl)cc1O (2.5 µM) | 0
O[C@@H]1CO[C@H]2[C@@H]1OC[C@H]2Oc1nc2nc(-c3ccc(-c4ccccc4)cc3)c(Cl)cc2[nH]1 (10 µM) | 0
Nc1c(C(=O)NCc2ccc(C(=O)NCCCC3CCCCC3)cc2)cnn1-c1ccccc1 (2.5 µM) | 0
Cc1ccc(C(=O)Nc2sc(Nc3ccccc3)nc2C(N)=O)cc1 (10 µM) | 0
COc1cc(N(C)CCN(C)C)c(N)cc1Nc1nccc(-c2cn(C)c3ccccc23)n1 [Mutated EGFR-IN-1] (10 µM) | 0
CCN(CC)c1cc2oc(=O)c(-c3nc4ccccc4o3)cc2cc1C (2.5 µM) | 0
Cn1cc(-c2cnc3cnn(S(=O)(=O)c4cnc5ccc(-c6cnn(C)c6)cn45)c3c2)cn1 [Glumetinib] (10 µM) | 0
Cc1ccc(NC(=O)c2ccnc(C(F)(F)F)c2)cc1-c1cc(OCCO)nc(N2CCOCC2)c1 (10 µM) | 0
C=CC(=O)Nc1cccc(-c2cccc3cnc(Nc4ccc(N5CCN(CCO)CC5)c(F)c4F)nc23)c1 [Olafertinib] (2.5 µM) | 0
CC(C)(C[C@H](N)C(=O)O)C(F)F [NV-5138 (hydrochloride)] (10 µM) | 0
Cc1cc(C)nc(NS(=O)(=O)c2ccc(NC(=S)NC(=O)COc3ccc(Br)cc3Cl)cc2)n1 (2.5 µM) | 0
CC[C@@](C)(Nc1ccnc(-c2c[nH]c3ncccc23)n1)C(=O)NCC(F)(F)F [Decernotinib] (10 µM) | 0
COc1cc2ncnc(-n3nc(-c4ccccn4)nc3N)c2cc1OC (10 µM) | 0
O=C1/C(=C\c2ccc(Cl)cc2)C=C(c2ccccc2)N1c1ccc(O)cc1 (2.5 µM) | 0
Oc1ccc(/C=C/c2cc(O)cc(O)c2)cc1 [Resveratrol] (10 µM) | 0
